PMC12656327 (Pharmaceutics, 2025)

Assay: NO release, Griess assay (phosphate buffer pH 7.4 with L-cysteine)
Format: physicochemical
Details: for Fold Change 24 h/1 h: ratio of NO released 24 h/1 h; for Fold Change 48 h/1 h: ratio of NO released 48 h/1 h; for Fold Change 48 h/24 h: ratio of NO released 48 h/24 h

With `COc1ccc(-c2nc(-c3no[n+]([O-])c3-c3noc(-c4ccc(OC)cc4)n3)no2)cc1` [2i] as the molecule, how does the “Fold Change 24 h/1 h” value read?
The value was 1.0.

And the “Fold Change 48 h/1 h” value?
The value was 1.2.

What about the “Fold Change 48 h/24 h” value of the same molecule?
Its value is 1.1.

Which results are given for `[O-][n+]1onc(-c2noc(-c3ccncc3)n2)c1-c1noc(-c2ccncc2)n1` [2f]?
Fold Change 24 h/1 h: 1.3; Fold Change 48 h/1 h: 1.5; Fold Change 48 h/24 h: 1.1

For `[O-][n+]1onc(-c2noc(-c3ccccc3Cl)n2)c1-c1noc(-c2ccccc2Cl)n1` [2k], which “Fold Change 24 h/1 h” value is on record?
The value was 1.1.

And the “Fold Change 48 h/1 h” value?
Its value is 1.2.

And the “Fold Change 48 h/24 h” value?
Its value is 1.0.

What does the source list for `[O-][n+]1onc(-c2noc(-c3ccccc3)n2)c1-c1noc(-c2ccccc2)n1` [2e]?
Fold Change 24 h/1 h: 1.2; Fold Change 48 h/1 h: 1.3; Fold Change 48 h/24 h: 1.1

With `COc1ccc(-c2nc(-c3no[n+]([O-])c3-c3noc(-c4ccc(OC)c(OC)c4)n3)no2)cc1OC` [2j] as the molecule, how does the “Fold Change 24 h/1 h” value read?
The value was 1.1.

And the “Fold Change 48 h/1 h” value?
Its value is 1.1.

And the “Fold Change 48 h/24 h” value?
Its value is 1.1.

Which results are given for `Cc1ccc(-c2nc(-c3no[n+]([O-])c3-c3noc(-c4ccc(C)cc4)n3)no2)cc1` [2h]?
Fold Change 24 h/1 h: 1.4; Fold Change 48 h/1 h: 1.5; Fold Change 48 h/24 h: 1.1

Which “Fold Change 24 h/1 h” value does the source give for `O=[N+]([O-])c1cccc(-c2nc(-c3no[n+]([O-])c3-c3noc(-c4cccc([N+](=O)[O-])c4)n3)no2)c1` [2c] here?
The value was 1.3.

And the “Fold Change 48 h/1 h” value?
Its value is 1.7.

What about the “Fold Change 48 h/24 h” value of the same molecule?
Its value is 1.3.

With `O=[N+]([O-])c1ccccc1-c1nc(-c2no[n+]([O-])c2-c2noc(-c3ccccc3[N+](=O)[O-])n2)no1` [2d] as the molecule, how does the “Fold Change 24 h/1 h” value read?
The value was 1.3.

And the “Fold Change 48 h/1 h” value?
The value was 1.3.

What about the “Fold Change 48 h/24 h” value of the same molecule?
The value was 1.0.

For `O=[N+]([O-])c1ccc(-c2nc(-c3no[n+]([O-])c3-c3noc(-c4ccc([N+](=O)[O-])cc4)n3)no2)cc1` [2b], which “Fold Change 24 h/1 h” value is on record?
The value was 1.2.

And the “Fold Change 48 h/1 h” value?
The value was 1.3.

What about the “Fold Change 48 h/24 h” value of the same molecule?
The value was 1.0.
